# From publication PMC7554988
# Results are given in words; binding and its absence hold for the method and conditions named.
# Biological target: mature form of D. discoideum frataxin (DdFXN) (Dictyostelium discoideum) (UniProt Q54C45)
# Assay: SEC; SEC-HPLC on a Superose 6 column under native conditions; 40 µM DdFXN, 50 µL injected; 20 mM Tris-HCl, 100 mM NaCl, 1 mM EDTA, pH 7.0; room temperature (~25 °C); 0.5 mL/min; mass inferred from a calibration with globular standards; samples kept at -70 °C or for 30 days at 4 °C gave similar results; both purified
binder,measurement,value
"mature form of D. discoideum frataxin (DdFXN) (protein, UniProt Q54C45 73-193) STINNNTKPISDVNLFHDIVDEEFELFVDRLEILSEANTCEGFEVEGNDGVLTIIVGNKGTYVINKQTPNRQIWWSSPLSGPKRFDYDSVEKRWVDNRDGTPLRQLLNSEINTLCKYDMEI",binding,no binding (tested: 40 µM)
